Results deposited as PubChem BioAssay AID1259405 (NCATS, 2018)

Assay: 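Silenced genes that increase secreted GFP made by CHO cells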 (primary screen)
System: Chinese hamster CHO-K1 ovary cells with stable secreted eGFP expression
Reagents: single siRNA against mouse genes, 0.8 pmol siRNA per well (2 µl of 400 nM stock)
Timing: 3 days
Measured: 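Per-well intracellular GFP measured by laser scanning cytometry, plus viability from ATP luminescence, each relative to plate median of non-targeting control wells, in %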
Scale: GFP, % of control: higher = more GFP per well, higher productivity; viability (ATP), % of control: higher = more viable cells (more ATP)
Call rule: 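Called active when intracellular GFP, relative to negative control, is at or above 120%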
In all, the deposit lists about 50,000 reagents; this is an unselected part. Over the whole deposit, about 4,000 (8%) got an active call. 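Mouse siRNA library applied to hamster cells; one well for each siRNA.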 Reagents against one gene are numbered here.

With Or51a24 (olfactory receptor family 51 subfamily A member 24) #1, what was measured?
GFP, % of control: 98.7; viability (ATP), % of control: 75.9; call: inactive

For Or51a24 (olfactory receptor family 51 subfamily A member 24) #2, how do the results read?
GFP, % of control: 73.6; viability (ATP), % of control: 72.3; call: inactive

With Or51a24 (olfactory receptor family 51 subfamily A member 24) #3, how do the results read?
GFP, % of control: 47.8; viability (ATP), % of control: 70.7; call: inactive

What did the screen give for Tmem230 (transmembrane protein 230) #1?
GFP, % of control: 66.6; viability (ATP), % of control: 38.7; call: inactive

With Tmem230 (transmembrane protein 230) #2, what was measured?
GFP, % of control: 52.4; viability (ATP), % of control: 70.4; call: inactive

For Tmem230 (transmembrane protein 230) #3, how do the results read?
GFP, % of control: 83.9; viability (ATP), % of control: 80.2; call: inactive

With Gpsm1 (G-protein signalling modulator 1 (AGS3-like, C. elegans)) #1, how do the results read?
GFP, % of control: 65.6; viability (ATP), % of control: 46.6; call: inactive

With Gpsm1 (G-protein signalling modulator 1 (AGS3-like, C. elegans)) #2, what does the deposit list?
GFP, % of control: 89.3; viability (ATP), % of control: 90.1; call: inactive

What is on record for Gpsm1 (G-protein signalling modulator 1 (AGS3-like, C. elegans)) #3?
GFP, % of control: 53.9; viability (ATP), % of control: 48.3; call: inactive

With Pip4k2c (phosphatidylinositol-5-phosphate 4-kinase, type II, gamma), what was measured?
GFP, % of control: 64.2; viability (ATP), % of control: 72.7; call: inactive

What is on record for 9830163H01Rik (RIKEN cDNA 9830163H01 gene) #1?
GFP, % of control: 128; viability (ATP), % of control: 53.6; call: active

What is on record for 9830163H01Rik (RIKEN cDNA 9830163H01 gene) #2?
GFP, % of control: 79.4; viability (ATP), % of control: 74.5; call: inactive

With 9830163H01Rik (RIKEN cDNA 9830163H01 gene) #3, what was measured?
GFP, % of control: 78.6; viability (ATP), % of control: 76; call: inactive

For Ndc1 (NDC1 transmembrane nucleoporin) #1, what does the deposit list?
GFP, % of control: 94; viability (ATP), % of control: 46.9; call: inactive

What did the screen give for Ndc1 (NDC1 transmembrane nucleoporin) #2?
GFP, % of control: 55.9; viability (ATP), % of control: 43.9; call: inactive

With Ndc1 (NDC1 transmembrane nucleoporin) #3, what does the deposit list?
GFP, % of control: 76.9; viability (ATP), % of control: 90; call: inactive

With Glrx5 (glutaredoxin 5) #1, how do the results read?
GFP, % of control: 71; viability (ATP), % of control: 62.8; call: inactive

For Glrx5 (glutaredoxin 5) #2, how do the results read?
GFP, % of control: 156; viability (ATP), % of control: 45.9; call: active

How did the screen score Glrx5 (glutaredoxin 5) #3?
GFP, % of control: 94.2; viability (ATP), % of control: 92.3; call: inactive

Which result is listed for Osr1 (odd-skipped related transcription factor 1) #1?
GFP, % of control: 51.6; viability (ATP), % of control: 58.7; call: inactive

For Osr1 (odd-skipped related transcription factor 1) #2, how do the results read?
GFP, % of control: 78.5; viability (ATP), % of control: 79.5; call: inactive

For Osr1 (odd-skipped related transcription factor 1) #3, what was measured?
GFP, % of control: 63.3; viability (ATP), % of control: 45.6; call: inactive

With Akr1b1 (aldo-keto reductase family 1 member B) #1, what was measured?
GFP, % of control: 68.5; viability (ATP), % of control: 34.9; call: inactive

With Akr1b1 (aldo-keto reductase family 1 member B) #2, how do the results read?
GFP, % of control: 97.1; viability (ATP), % of control: 70.4; call: inactive

For Akr1b1 (aldo-keto reductase family 1 member B) #3, what was measured?
GFP, % of control: 77.5; viability (ATP), % of control: 50.5; call: inactive

With Tpgs2 (tubulin polyglutamylase complex subunit 2) #1, what does the deposit list?
GFP, % of control: 107; viability (ATP), % of control: 66.2; call: inactive

What is on record for Tpgs2 (tubulin polyglutamylase complex subunit 2) #2?
GFP, % of control: 74.3; viability (ATP), % of control: 76.3; call: inactive

How did the screen score Tpgs2 (tubulin polyglutamylase complex subunit 2) #3?
GFP, % of control: 71.7; viability (ATP), % of control: 80.5; call: inactive

For Fermt1 (fermitin family member 1) #1, what was measured?
GFP, % of control: 108; viability (ATP), % of control: 66.4; call: inactive

What is on record for Fermt1 (fermitin family member 1) #2?
GFP, % of control: 102; viability (ATP), % of control: 94.8; call: inactive

For Fermt1 (fermitin family member 1) #3, what does the deposit list?
GFP, % of control: 127; viability (ATP), % of control: 139; call: active

For Slc48a1 #1, how do the results read?
GFP, % of control: 101; viability (ATP), % of control: 87.8; call: inactive

With Slc48a1 #2, what was measured?
GFP, % of control: 52.1; viability (ATP), % of control: 48.6; call: inactive

With Slc48a1 #3, what does the deposit list?
GFP, % of control: 77.1; viability (ATP), % of control: 72.8; call: inactive

For Ralbp1 (ralA binding protein 1) #1, how do the results read?
GFP, % of control: 67.4; viability (ATP), % of control: 99.8; call: inactive

Which result is listed for Ralbp1 (ralA binding protein 1) #2?
GFP, % of control: 75.2; viability (ATP), % of control: 91.2; call: inactive

With Casp1 (caspase 1) #1, what was measured?
GFP, % of control: 65; viability (ATP), % of control: 72.8; call: inactive

With Casp1 (caspase 1) #2, what was measured?
GFP, % of control: 58.9; viability (ATP), % of control: 79; call: inactive

For Casp1 (caspase 1) #3, how do the results read?
GFP, % of control: 50; viability (ATP), % of control: 84.7; call: inactive

With Cyb561a3 (cytochrome b561 family, member A3) #1, what was measured?
GFP, % of control: 133; viability (ATP), % of control: 94.7; call: active

With Cyb561a3 (cytochrome b561 family, member A3) #2, how do the results read?
GFP, % of control: 70; viability (ATP), % of control: 88.2; call: inactive

For Cyb561a3 (cytochrome b561 family, member A3) #3, what was measured?
GFP, % of control: 100; viability (ATP), % of control: 74.4; call: inactive

Reagents listed so far called active:
9830163H01Rik (RIKEN cDNA 9830163H01 gene) #1 — GFP, % of control: 128; viability (ATP), % of control: 53.6; call: active
Glrx5 (glutaredoxin 5) #2 — GFP, % of control: 156; viability (ATP), % of control: 45.9; call: active
Fermt1 (fermitin family member 1) #3 — GFP, % of control: 127; viability (ATP), % of control: 139; call: active
Cyb561a3 (cytochrome b561 family, member A3) #1 — GFP, % of control: 133; viability (ATP), % of control: 94.7; call: active
